Results are given in words; binding and its absence hold for the method and conditions named. Binding seen in cells or lysates may run through a third protein. Binding can be weak; no strength is given.
Biological target: GLI1 in GBM cells (co-IP with USP28 constructs; GLI1-IP mass spectrometry) (UniProt P08151)
Test: co-IP; GBM cells expressing full-length or truncated USP28 constructs; RIPA lysis buffer with protease inhibitor cocktail; Pierce Co-Immunoprecipitation Kit

The chains behind the UniProt entries cited, without tags or fusion partners. Where a name states a change or a piece, a line headed by the entry shows the natural chain unless it says otherwise.
UniProt P08151: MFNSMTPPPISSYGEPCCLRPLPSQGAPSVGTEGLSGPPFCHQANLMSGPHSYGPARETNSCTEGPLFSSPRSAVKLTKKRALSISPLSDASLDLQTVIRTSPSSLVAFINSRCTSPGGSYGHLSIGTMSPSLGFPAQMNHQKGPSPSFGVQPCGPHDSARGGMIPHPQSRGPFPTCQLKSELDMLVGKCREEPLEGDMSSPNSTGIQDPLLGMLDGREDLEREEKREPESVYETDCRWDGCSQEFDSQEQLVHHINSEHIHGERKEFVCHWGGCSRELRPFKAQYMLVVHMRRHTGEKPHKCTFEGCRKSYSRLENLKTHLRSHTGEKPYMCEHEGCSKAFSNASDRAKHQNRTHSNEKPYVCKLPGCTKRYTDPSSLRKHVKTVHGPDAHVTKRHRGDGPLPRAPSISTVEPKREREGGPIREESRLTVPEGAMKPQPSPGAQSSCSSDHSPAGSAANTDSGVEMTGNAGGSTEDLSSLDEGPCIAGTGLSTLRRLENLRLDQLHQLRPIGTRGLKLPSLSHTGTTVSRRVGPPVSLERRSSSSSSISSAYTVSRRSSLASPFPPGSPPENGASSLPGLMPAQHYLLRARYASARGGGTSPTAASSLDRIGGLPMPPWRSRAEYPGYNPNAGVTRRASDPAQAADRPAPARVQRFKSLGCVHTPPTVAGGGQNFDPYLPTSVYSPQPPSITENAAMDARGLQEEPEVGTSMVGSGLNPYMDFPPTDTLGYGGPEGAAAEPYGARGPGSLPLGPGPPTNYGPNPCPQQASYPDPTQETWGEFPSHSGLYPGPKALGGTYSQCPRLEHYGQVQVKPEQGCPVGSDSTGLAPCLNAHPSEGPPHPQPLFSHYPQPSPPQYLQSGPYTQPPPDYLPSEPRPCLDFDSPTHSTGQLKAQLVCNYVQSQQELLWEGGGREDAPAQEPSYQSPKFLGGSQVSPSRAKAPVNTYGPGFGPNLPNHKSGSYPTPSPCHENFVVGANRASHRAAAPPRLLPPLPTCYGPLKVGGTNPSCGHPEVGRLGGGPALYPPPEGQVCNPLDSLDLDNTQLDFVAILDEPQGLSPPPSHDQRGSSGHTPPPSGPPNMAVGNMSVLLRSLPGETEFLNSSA
UniProt Q96RU2: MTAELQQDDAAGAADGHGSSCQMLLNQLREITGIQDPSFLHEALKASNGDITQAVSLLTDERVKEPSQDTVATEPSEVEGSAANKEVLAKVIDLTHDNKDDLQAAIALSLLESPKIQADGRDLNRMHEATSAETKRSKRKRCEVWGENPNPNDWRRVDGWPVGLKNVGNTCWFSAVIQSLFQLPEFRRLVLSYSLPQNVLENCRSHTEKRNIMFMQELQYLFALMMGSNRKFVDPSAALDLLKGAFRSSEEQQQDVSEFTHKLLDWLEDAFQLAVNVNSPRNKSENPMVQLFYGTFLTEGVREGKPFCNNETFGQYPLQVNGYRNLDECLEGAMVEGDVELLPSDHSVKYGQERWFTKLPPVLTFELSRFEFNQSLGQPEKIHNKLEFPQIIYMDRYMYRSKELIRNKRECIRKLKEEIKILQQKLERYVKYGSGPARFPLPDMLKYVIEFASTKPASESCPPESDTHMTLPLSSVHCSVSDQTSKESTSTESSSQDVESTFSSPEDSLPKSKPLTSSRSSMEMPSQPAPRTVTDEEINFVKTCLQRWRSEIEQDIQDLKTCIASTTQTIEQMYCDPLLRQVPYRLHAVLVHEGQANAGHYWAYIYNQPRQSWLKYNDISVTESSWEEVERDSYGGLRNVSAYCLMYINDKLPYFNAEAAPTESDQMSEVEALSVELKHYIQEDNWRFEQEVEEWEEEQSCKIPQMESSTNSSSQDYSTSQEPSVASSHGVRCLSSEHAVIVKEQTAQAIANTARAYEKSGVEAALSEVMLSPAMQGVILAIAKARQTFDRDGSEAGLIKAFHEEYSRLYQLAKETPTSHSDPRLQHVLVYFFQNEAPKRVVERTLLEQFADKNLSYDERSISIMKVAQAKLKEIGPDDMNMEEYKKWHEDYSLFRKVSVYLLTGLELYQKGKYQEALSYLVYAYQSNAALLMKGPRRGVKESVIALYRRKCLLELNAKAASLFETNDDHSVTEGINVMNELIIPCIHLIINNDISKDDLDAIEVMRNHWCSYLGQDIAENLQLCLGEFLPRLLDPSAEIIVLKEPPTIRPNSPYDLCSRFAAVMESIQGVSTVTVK

binding: binds
Substance: USP-domain truncated version of USP28 (from UniProt Q96RU2) (domain or fragment)
